Amino acid sequences for entries named in this document (tags omitted). A change or cut given only in a name is not applied to a line headed by its entry.
UniProt P49888: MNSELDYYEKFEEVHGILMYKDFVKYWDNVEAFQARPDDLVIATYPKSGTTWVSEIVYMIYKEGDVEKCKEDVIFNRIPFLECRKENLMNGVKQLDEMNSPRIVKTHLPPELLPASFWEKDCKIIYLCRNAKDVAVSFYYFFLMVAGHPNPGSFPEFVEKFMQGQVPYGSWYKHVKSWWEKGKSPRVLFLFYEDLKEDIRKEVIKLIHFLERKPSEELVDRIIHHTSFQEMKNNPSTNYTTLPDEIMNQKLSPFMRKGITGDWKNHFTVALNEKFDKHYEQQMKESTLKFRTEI

According to patent publication US7803921B2, “Sulfotransferase 1E1 sequence variants” (Mayo Foundation for Medical Education and Research, priority 2002, dated 2010):

B1: Asp22Tyr: SULT1E1 allozyme with tyrosine in place of aspartic acid at residue 22 (thymine at nucleotide 64) (protein, UniProt P49888 1-294, looked up, variant D22Y)
Sulfotransferase 1E1: MNSELDYYEKFEEVHGILMYKYFVKYWDNVEAFQARPDDLVIATYPKSGTTWVSEIVYMIYKEGDVEKCKEDVIFNRIPFLECRKENLMNGVKQLDEMNSPRIVKTHLPPELLPASFWEKDCKIIYLCRNAKDVAVSFYYFFLMVAGHPNPGSFPEFVEKFMQGQVPYGSWYKHVKSWWEKGKSPRVLFLFYEDLKEDIRKEVIKLIHFLERKPSEELVDRIIHHTSFQEMKNNPSTNYTTLPDEIMNQKLSPFMRKGITGDWKNHFTVALNEKFDKHYEQQMKESTLKFRTEI
B2: Ala32Val: SULT1E1 allozyme with valine in place of alanine at residue 32 (thymine at nucleotide 95) (protein, UniProt P49888 1-294, looked up, variant A32V)
Sulfotransferase 1E1: B1 Sulfotransferase 1E1 with Y22D, A32V
B3: Pro253His: SULT1E1 allozyme with histidine in place of proline at residue 253 (adenine at nucleotide 758) (protein, UniProt P49888 1-294, looked up, variant P253H)
Sulfotransferase 1E1: B1 Sulfotransferase 1E1 with Y22D, P253H

These molecules were tested on SULT1E1 (assay: Quantitative Western blot of immunoreactive SULT1E1 protein in COS-1 cytosolic extracts). Conditions: corrected for transfection efficiency, in words.
Parameters: species or system human
Method: Quantitative Western blot analysis was performed using COS-1 cytosolic extracts containing recombinant SULT1E1 allozymes. The quantity of extracts loaded on 12.5% acrylamide gels was adjusted for each allozyme extract, so that each lane contained an equal quantity of β-galactosidase activity, i.e., gel loading was corrected for variation in transfection efficiency. The level of immunoreactive protein was measured using a rabbit polyclonal antibody directed against amino acids 1-13 of SULT1E1, with a cysteine residue added at the carboxy terminus. Properties of this antibody have been described elsewhere. See, Aksoy et al., (1994) Biochem. Biophys. Res. Commun. 200:1621-1629. Bound antibody was detected using the ECL system (Amersham Pharmacia, Piscataway, N.J.). An Ambis Radioanalytic Imaging System, Quant Probe Version 4.31 (Ambis, Inc., San Diego, Calif.) was used to quantitate immunoreactive protein in each lane, and the data were expressed as a percent of the intensity of the control wild type SULT1E1 protein band on that gel.

Molecule | level of immunoreactive SULT1E1 protein compared with wild type
B1 | alterations in the level of protein
B2 | decreased level of immunoreactive protein
B3 | no differences

Residue numbers refer to the chain shown, from its start.
